Results are given in words; binding and its absence hold for the method and conditions named. Some entries that bind do so weakly or less than the wild type. For part of these data: Where a sequence is shown, tags or fusion partners need not be part of it.
Key:
Assay in all cases: pull-down; MBP or MBP-tagged proteins immobilised on amylose resin; equimolar purified Sec10(145–827) (1 µM) added; 10 mM HEPES pH 7, 100 mM NaCl, 0.1% NP-40, 1 mM DTT; 1 h at 4°C; three washes; Western blot with α-His5 and α-MBP; both purified
[1] = molecular target: T1, MBP-Sec6p (residues 1–805) (yeast) (UniProt P32844)
T1 sequence: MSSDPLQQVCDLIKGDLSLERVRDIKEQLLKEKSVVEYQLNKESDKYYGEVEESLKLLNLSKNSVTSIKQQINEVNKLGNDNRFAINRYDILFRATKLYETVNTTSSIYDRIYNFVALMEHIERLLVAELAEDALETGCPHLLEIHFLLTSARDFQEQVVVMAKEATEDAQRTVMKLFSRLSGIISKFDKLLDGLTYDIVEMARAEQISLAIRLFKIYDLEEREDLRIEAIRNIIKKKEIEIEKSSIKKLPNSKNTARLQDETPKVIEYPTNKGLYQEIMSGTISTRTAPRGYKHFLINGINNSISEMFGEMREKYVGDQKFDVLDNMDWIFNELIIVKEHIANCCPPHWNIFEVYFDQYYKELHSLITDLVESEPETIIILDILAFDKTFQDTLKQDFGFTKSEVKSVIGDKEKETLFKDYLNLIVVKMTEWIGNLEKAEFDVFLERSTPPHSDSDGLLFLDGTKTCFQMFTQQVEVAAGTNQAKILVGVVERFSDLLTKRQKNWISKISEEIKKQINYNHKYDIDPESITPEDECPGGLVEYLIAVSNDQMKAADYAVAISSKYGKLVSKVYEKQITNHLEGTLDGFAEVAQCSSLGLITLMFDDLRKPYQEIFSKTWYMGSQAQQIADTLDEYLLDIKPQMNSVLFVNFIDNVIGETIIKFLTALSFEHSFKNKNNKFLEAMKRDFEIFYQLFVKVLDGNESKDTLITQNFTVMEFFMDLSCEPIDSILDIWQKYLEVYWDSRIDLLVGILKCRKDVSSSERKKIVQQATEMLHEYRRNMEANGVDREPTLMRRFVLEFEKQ

Chains of the proteins cited; added tags and fusions are not shown. Residues count along the entry.
UniProt P19658, residues 63-623: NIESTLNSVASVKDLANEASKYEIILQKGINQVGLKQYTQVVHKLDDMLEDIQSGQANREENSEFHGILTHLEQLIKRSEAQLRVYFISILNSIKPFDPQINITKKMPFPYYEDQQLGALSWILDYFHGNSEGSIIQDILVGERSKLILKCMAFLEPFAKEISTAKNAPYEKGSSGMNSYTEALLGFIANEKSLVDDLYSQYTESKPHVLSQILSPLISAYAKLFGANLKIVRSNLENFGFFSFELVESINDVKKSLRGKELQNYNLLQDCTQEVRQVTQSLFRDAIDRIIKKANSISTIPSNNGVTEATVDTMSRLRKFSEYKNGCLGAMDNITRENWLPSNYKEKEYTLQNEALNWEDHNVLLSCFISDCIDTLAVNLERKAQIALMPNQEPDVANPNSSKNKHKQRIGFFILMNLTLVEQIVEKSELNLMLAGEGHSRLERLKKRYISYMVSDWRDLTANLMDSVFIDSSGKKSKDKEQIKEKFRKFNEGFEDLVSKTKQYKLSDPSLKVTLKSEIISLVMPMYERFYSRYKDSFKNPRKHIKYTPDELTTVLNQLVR
UniProt P38261, residues 523-753: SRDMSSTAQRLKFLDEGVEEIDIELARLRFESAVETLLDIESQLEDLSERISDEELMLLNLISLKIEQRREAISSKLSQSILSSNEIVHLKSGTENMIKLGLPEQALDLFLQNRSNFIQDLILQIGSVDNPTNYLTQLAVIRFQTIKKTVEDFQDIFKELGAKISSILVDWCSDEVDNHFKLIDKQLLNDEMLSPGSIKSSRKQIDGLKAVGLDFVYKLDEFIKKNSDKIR

[2] = molecular target: MBP-Exo70p (residues 63–623) (yeast) (UniProt P19658)
[3] = molecular target: MBP-Exo84CT (residues 523–753) (yeast) (UniProt P38261)

Measured: binding

B1: Sec10(145–827) (domain or fragment, UniProt Q06245 145-827)
chain: GDKLETAIKKKQNYIQSVELIRRYNDFYSMGKSDIVEQLRLSKNWKLNLKSVKLMKNLLILSSKLETSSIPKTINTKLVIEKYSEMMENELLENFNSAYRENNFTKLNEIAIILNNFNGGVNVIQSFINQHDYFIDTKQIDLENEFENVFIKNVKFKEQLIDFENHSVIIETSMQNLINDVETVIKNESKIVKRVFEEKATHVIQLFIQRVFAQKIEPRFEVLLRNSLSISNLAYVRILHGLFTLFGKFTKSLIDYFQLLEIDDSNQILSTTLEQCFADLFSHYLYDRSKYFGIEKRSLEAILVDMTSKFTVNYDKEINKRVLLDKYKEKLSTNVDAFMHSPRGNTHSRQDSTSRSKLSQFNSFLKTHLDKDHLSLNRTNTLSDSFNNSSSSTQYDVANNSSSLVNSSFTASDIDNSPNSPANYSLNDVDSMLKCVVESTARVMELIPNKAHLYILEILKIMFLGIVDSYMEIALEVAYWKICKVDINKTAGVVNLNFLKFISMSTEILDLLSISIKSIFLPLLNNSPEIKAQIIEMTNSQIQKMEILINIILQETITVISTKFSAILCKQKKKDFVPKSQELLDQDTLPAIEIVNILNLIFEQSSKFLKGKNLQTFLTLIGEELYGLLLSHYSHFQVNSIGGVVVTKDIIGYQTAIEDWGVASLIDKFATLRELANLFTVQP
binds weakly: all assays above

— publication PMC2635961
